The list does not hold the whole screen: it is rich in T/C values a quarter to a half above the control, in often repeated tests (any T/C) and in doses without a T/C. Other doses and runs of a compound stand elsewhere. T/C is the treated group as % of the vehicle group. Some entries give survivors of the animals treated and no T/C: the source holds a T/C of zero for them, seemingly a mark for toxic or unscored doses. Some survivor counts are full or nearly so, which does not show that the dose was tolerated: survival well below the control is almost never listed, so the zero probably covers shortened survival too. Survivors were counted at the toxicity check, usually on the fifth day, unless a day is given; later deaths do not show. Schedules are NCI's codes, taken here to give the interval after Q, in days (D) or hours (H), and the number of doses after X. Some schedule codes hold Z or #, which are not explained here. Some doses were run more than once; the values are given in rising order. Where survival is the endpoint, this PubChem deposit counts one and a half times the control or more as active, and values a quarter to a half above the control carry no call in these data; other NCI protocols may use other cut-offs.
System: P335 leukemia ip, BDF1 mice, survival T/C %
Experiment: NCI In Vivo Anticancer Drug Screen. Data for tumor model P335 Leukemia (intraperitoneal) in B6D2F1 (BDF1) mice
Details: T/C endpoint: mean survival time, higher T/C = longer survival
Procedure: The antitumor activity of compounds was measured in mice bearing transplantable tumors. Survival or tumor size were measured and the results are expressed as the measurement made in the treated group (T) divided by the measurement made in the vehicle treated control group (C). The tumor model used in this assay is P335 Leukemia (intraperitoneal) in B6D2F1 (BDF1) mice

[1] = dose: 250.0 mg/kg/injection, schedule: Q01DX Z (ip), vehicle: carboxymethylcellulose (CMC)
[2] = dose: 200.0 mg/kg/injection, schedule: Q01DX Z (ip), vehicle: carboxymethylcellulose (CMC)
[3] = dose: 1.0 mg/kg/injection, schedule: Q01DX Z (ip), vehicle: carboxymethylcellulose (CMC)

With `CC[C@]1(O)C[C@H]2CN(CCc3c([nH]c4ccccc34)[C@@](C(=O)OC)(c3cc4c(cc3OC)N(C=O)[C@H]3[C@@](O)(C(=O)OC)[C@H](OC(C)=O)[C@]5(CC)C=CCN6CC[C@]43[C@@H]65)C2)C1` the survivor count (dose: 0.5 mg/kg/injection, schedule: Q01DX Z (ip), vehicle: water) was 2 of 6 and the survivor count (dose: 1.0 mg/kg/injection, schedule: Q01DX Z (ip), vehicle: water) was 1 of 6 and 5 of 6.

With `CC(=O)[C@H]1CC[C@H]2[C@@H]3C[C@H](C)C4=CC(=O)CC[C@]4(C)[C@H]3C(=O)C[C@]12C` the survivor count (dose: 100.0 mg/kg/injection, schedule: Q01DX Z (sc), vehicle: steroid suspending solution) was 6 of 6.

In the case of `O[C@H](CN1CC1)[C@@H](O)CN1CC1`, the survivor count (dose: 31.0 micrograms/kg/injection, schedule: Q01DX Z (ip), vehicle: carboxymethylcellulose (CMC)) is reported as 6 of 6, the survivor count (dose: 63.0 micrograms/kg/injection, schedule: Q01DX Z (ip), vehicle: carboxymethylcellulose (CMC)) is reported as 6 of 6 and the survivor count (dose: 125.0 micrograms/kg/injection, schedule: Q01DX Z (ip), vehicle: carboxymethylcellulose (CMC)) is reported as 6 of 6. The survivor count (dose: 250.0 micrograms/kg/injection, schedule: Q01DX Z (ip), vehicle: carboxymethylcellulose (CMC)) was 6 of 6 and the survivor count (dose: 500.0 micrograms/kg/injection, schedule: Q01DX Z (ip), vehicle: carboxymethylcellulose (CMC)) was 1 of 6.

In the case of `CC(=O)OCC1OC(n2ncc(=O)[nH]c2=O)C(OC(C)=O)C1OC(C)=O` (stereo not drawn), the T/C (dose: 375.0 mg/kg/injection, schedule: Q01DX Z (ip), vehicle: other) is reported as 129 % of control, the survivor count (dose: 750.0 mg/kg/injection, schedule: Q01DX Z (ip), vehicle: other) is reported as 6 of 6 and the survivor count (dose: 1500.0 mg/kg/injection, schedule: Q01DX Z (ip), vehicle: other) is reported as 6 of 6.

In the case of `CCCNc1ncnc2[nH]ncc12`, the survivor count (dose: 1.25 mg/kg/injection, schedule: Q01DX Z (ip), vehicle: water) is reported as 6 of 6, the survivor count (dose: 2.5 mg/kg/injection, schedule: Q01DX Z (ip), vehicle: water) is reported as 6 of 6 and the survivor count (dose: 5.0 mg/kg/injection, schedule: Q01DX Z (ip), vehicle: water) is reported as 6 of 6. The survivor count (dose: 10.0 mg/kg/injection, schedule: Q01DX Z (ip), vehicle: water) was 6 of 6, the survivor count (dose: 20.0 mg/kg/injection, schedule: Q01DX Z (ip), vehicle: water) was 6 of 6 and the survivor count (dose: 40.0 mg/kg/injection, schedule: Q01DX Z (ip), vehicle: water) was 5 of 6.

In the case of `CN(C)c1nc(N(C)C)nc(N(C)C)n1`, the T/C [1] is reported as 127 % of control and the survivor count (dose: 2000.0 mg/kg/injection, schedule: Q01DX Z (ip), vehicle: carboxymethylcellulose (CMC)) is reported as 3 of 6.

In the case of `CSc1ncnc2c1ncn2C1OC(CO)C(O)C1O` (stereo not drawn), the T/C (dose: 25.0 mg/kg/injection, schedule: Q01DX Z (ip), vehicle: carboxymethylcellulose (CMC)) is reported as 132 % of control and the survivor count (dose: 100.0 mg/kg/injection, schedule: Q01DX Z (ip), vehicle: carboxymethylcellulose (CMC)) is reported as 6 of 6.

For `N#CCSc1ncnc2nc[nH]c12`, the survivor count (dose: 25.0 mg/kg/injection, schedule: Q01DX Z (ip), vehicle: methylcellulose (MC)) was 6 of 6, the survivor count (dose: 50.0 mg/kg/injection, schedule: Q01DX Z (ip), vehicle: methylcellulose (MC)) was 6 of 6 and the survivor count (dose: 100.0 mg/kg/injection, schedule: Q01DX Z (ip), vehicle: methylcellulose (MC)) was 6 of 6. For the same compound, the survivor count [2] was 2 of 6 and the survivor count (dose: 400.0 mg/kg/injection, schedule: Q01DX Z (ip), vehicle: carboxymethylcellulose (CMC)) was 0 of 6.

For `O=C(Nc1ccc(NC2=NCCN2)cc1)c1ccc(C(=O)Nc2ccc(NC3=NCCN3)cc2)cc1`, the survivor count (dose: 0.25 mg/kg/injection, schedule: Q01DX Z (ip), vehicle: saline) was 2 of 6, the survivor count (dose: 0.5 mg/kg/injection, schedule: Q01DX Z (ip), vehicle: saline) was 6 of 6 and the survivor count (dose: 1.0 mg/kg/injection, schedule: Q01DX Z (ip), vehicle: saline) was 6 of 6. For the same compound, the T/C (dose: 2.0 mg/kg/injection, schedule: Q01DX Z (ip), vehicle: saline) was 126 % of control.

For `S=P(N1CCOCC1)(N1CC1)N1CC1`, the survivor count (dose: 6.25 mg/kg/injection, schedule: Q01DX Z (ip), vehicle: carboxymethylcellulose (CMC)) was 6 of 6 and the survivor count (dose: 50.0 mg/kg/injection, schedule: Q01DX Z (ip), vehicle: carboxymethylcellulose (CMC)) was 6 of 6.

In the case of `Nc1nc(SCc2ccccc2)c2[nH]cnc2n1`, the survivor count (dose: 1.2 mg/kg/injection, schedule: Q01DX Z (ip), vehicle: carboxymethylcellulose (CMC)) is reported as 3 of 6, the survivor count (dose: 4.7 mg/kg/injection, schedule: Q01DX Z (ip), vehicle: carboxymethylcellulose (CMC)) is reported as 3 of 6 and the survivor count (dose: 37.5 mg/kg/injection, schedule: Q01DX Z (ip), vehicle: carboxymethylcellulose (CMC)) is reported as 6 of 6. For the same compound, the survivor count (dose: 75.0 mg/kg/injection, schedule: Q01DX Z (ip), vehicle: carboxymethylcellulose (CMC)) was 0 of 6.

In the case of `O=c1cn[nH]c(=O)[nH]1`, the survivor count (dose: 1500.0 mg/kg/injection, schedule: Q01DX Z (ip), vehicle: carboxymethylcellulose (CMC)) is reported as 6 of 6.

For `NC(N)=Nc1nc2ccccc2o1`, the survivor count (dose: 4.0 mg/kg/injection, schedule: Q01DX Z (ip), vehicle: carboxymethylcellulose (CMC)) was 6 of 6 and the survivor count [1] was 2 of 6.

In the case of `C[C@]12CCC(=O)C=C1CC[C@@H]1[C@@H]2CC[C@@]2(C)[C@H]1CC[C@]2(C)O`, the T/C (dose: 0.25 mg/kg/injection, schedule: Q01DX Z (sc), vehicle: steroid suspending solution) is reported as 138 % of control, the T/C (dose: 1.0 mg/kg/injection, schedule: Q01DX Z (sc), vehicle: steroid suspending solution) is reported as 143 % of control and the T/C (dose: 2.0 mg/kg/injection, schedule: Q01DX Z (sc), vehicle: steroid suspending solution) is reported as 128 % of control.

With `CN(C)c1ccc(/C=C\c2ccnc3ccccc23)cc1` the survivor count (dose: 6.25 mg/kg/injection, schedule: Q01DX Z (ip), vehicle: water) was 6 of 6, the survivor count (dose: 12.5 mg/kg/injection, schedule: Q01DX Z (ip), vehicle: water) was 6 of 6 and the survivor count (dose: 25.0 mg/kg/injection, schedule: Q01DX Z (ip), vehicle: water) was 6 of 6. The survivor count (dose: 50.0 mg/kg/injection, schedule: Q01DX Z (ip), vehicle: water) was 6 of 6.

In the case of `C[C@@H]1C[C@H]2CC[C@H](O2)[C@H](C)C(=O)O[C@@H](C)C[C@@H]2CC[C@@H](O2)[C@@H](C)C(=O)O[C@H](C)C[C@H]2CC[C@H](O2)[C@H](C)C(=O)O[C@@H](C)C[C@@H]2CC[C@@H](O2)[C@@H](C)C(=O)O1`, the survivor count [2] is reported as 6 of 6.

In the case of `CCn1cnc2c(=S)nc[nH]c21`, the survivor count (dose: 3.9 mg/kg/injection, schedule: Q01DX Z (ip), vehicle: carboxymethylcellulose (CMC)) is reported as 6 of 6, the survivor count (dose: 7.8 mg/kg/injection, schedule: Q01DX Z (ip), vehicle: carboxymethylcellulose (CMC)) is reported as 6 of 6 and the survivor count (dose: 31.2 mg/kg/injection, schedule: Q01DX Z (ip), vehicle: carboxymethylcellulose (CMC)) is reported as 6 of 6. The survivor count (dose: 31.25 mg/kg/injection, schedule: Q01DX Z (ip), vehicle: carboxymethylcellulose (CMC)) was 6 of 6, the survivor count (dose: 62.5 mg/kg/injection, schedule: Q01DX Z (ip), vehicle: carboxymethylcellulose (CMC)) was 5 of 6 and the survivor count (dose: 125.0 mg/kg/injection, schedule: Q01DX Z (ip), vehicle: carboxymethylcellulose (CMC)) was 3 of 6. The survivor count [1] was 0 of 6.

In the case of `Cn1cnc([N+](=O)[O-])c1Sc1nc(N)nc2nc[nH]c12`, the T/C (dose: 0.5 mg/kg/injection, schedule: Q01DX Z (ip), vehicle: carboxymethylcellulose (CMC)) is reported as 129 % of control, the T/C [3] is reported as 129 % of control and the T/C (dose: 2.0 mg/kg/injection, schedule: Q01DX Z (ip), vehicle: carboxymethylcellulose (CMC)) is reported as 147 % of control.

`C1CN1c1nc(N2CC2)nc(N2CC2)n1` was tested, and the survivor count (dose: 3.9 micrograms/kg/injection, schedule: Q01DX Z (ip), vehicle: saline) was 6 of 6, the survivor count (dose: 15.7 micrograms/kg/injection, schedule: Q01DX Z (ip), vehicle: saline) was 6 of 6 and the survivor count (dose: 62.5 micrograms/kg/injection, schedule: Q01DX Z (ip), vehicle: saline) was 1 of 6. The survivor count (dose: 500.0 micrograms/kg/injection, schedule: Q01DX Z (ip), vehicle: saline) was 0 of 6.

With `N#Cc1cn(C2OC(CO)C(O)C2O)c2ncnc(N)c12` (stereo not drawn) the survivor count (dose: 0.12 mg/kg/injection, schedule: Q01DX Z (ip), vehicle: carboxymethylcellulose (CMC)) was 4 of 6 and the survivor count [3] was 6 of 6.

From PubChem BioAssay AID224 (DTP/NCI, 2004)
